According to patent US20040259096:
Results from cells or extracts need not show a direct contact.

Chains of the proteins cited; added tags and fusions are not shown. Chains listed by the source or under a name are the forms on record and can include a tag or linker.
AhR/ARNT heteromer (guinea pig liver) (Cavia porcellus), one chain, as listed by the source, chain 1 of 2: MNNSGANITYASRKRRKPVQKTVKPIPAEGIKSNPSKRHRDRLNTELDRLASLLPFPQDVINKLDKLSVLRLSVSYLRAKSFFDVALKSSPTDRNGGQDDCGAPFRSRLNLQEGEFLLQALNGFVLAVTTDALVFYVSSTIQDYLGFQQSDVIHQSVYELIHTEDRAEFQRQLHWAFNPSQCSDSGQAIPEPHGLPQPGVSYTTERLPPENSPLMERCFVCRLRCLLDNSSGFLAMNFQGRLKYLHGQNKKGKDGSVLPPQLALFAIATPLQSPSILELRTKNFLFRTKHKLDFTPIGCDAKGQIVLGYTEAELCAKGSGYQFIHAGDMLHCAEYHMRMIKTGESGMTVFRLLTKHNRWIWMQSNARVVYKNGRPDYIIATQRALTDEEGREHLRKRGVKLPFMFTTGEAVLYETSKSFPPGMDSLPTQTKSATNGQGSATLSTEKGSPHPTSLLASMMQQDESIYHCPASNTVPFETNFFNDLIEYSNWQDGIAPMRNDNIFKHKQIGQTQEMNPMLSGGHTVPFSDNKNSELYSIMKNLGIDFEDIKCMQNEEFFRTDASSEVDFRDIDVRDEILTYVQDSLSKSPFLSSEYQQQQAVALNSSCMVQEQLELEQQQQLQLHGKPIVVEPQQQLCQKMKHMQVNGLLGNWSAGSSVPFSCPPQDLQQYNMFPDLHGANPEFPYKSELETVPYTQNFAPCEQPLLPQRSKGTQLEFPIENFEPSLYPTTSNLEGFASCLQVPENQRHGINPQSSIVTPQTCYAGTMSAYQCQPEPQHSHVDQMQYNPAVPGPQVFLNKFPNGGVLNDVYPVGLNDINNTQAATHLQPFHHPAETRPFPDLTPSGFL
AhR/GST-ARNT(1-474) heterodimer (Mus musculus), one chain, as listed by the source, chain 1 of 2: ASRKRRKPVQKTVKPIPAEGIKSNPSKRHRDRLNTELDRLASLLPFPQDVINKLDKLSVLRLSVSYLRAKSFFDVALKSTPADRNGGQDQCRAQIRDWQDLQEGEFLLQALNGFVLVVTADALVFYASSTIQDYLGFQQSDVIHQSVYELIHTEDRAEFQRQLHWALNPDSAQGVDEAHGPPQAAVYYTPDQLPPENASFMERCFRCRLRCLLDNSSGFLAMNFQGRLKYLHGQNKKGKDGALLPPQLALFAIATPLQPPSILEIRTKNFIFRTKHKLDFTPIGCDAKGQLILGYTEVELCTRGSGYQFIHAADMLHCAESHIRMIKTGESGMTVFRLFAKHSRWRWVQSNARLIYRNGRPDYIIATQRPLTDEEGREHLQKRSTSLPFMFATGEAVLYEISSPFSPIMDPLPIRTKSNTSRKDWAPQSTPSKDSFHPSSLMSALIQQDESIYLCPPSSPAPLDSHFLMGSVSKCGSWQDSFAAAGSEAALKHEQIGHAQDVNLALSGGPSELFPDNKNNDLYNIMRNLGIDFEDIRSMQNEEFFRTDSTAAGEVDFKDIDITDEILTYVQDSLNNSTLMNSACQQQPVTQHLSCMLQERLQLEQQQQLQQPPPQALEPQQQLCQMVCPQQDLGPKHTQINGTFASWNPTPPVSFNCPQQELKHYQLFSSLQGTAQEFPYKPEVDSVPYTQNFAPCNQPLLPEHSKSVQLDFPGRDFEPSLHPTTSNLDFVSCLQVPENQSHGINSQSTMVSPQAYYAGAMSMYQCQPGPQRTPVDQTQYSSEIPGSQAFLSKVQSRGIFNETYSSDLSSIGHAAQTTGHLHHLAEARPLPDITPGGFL
AhR/ARNT heteromer (rat liver) (Rattus norvegicus), one chain, as listed by the source, chain 1 of 2: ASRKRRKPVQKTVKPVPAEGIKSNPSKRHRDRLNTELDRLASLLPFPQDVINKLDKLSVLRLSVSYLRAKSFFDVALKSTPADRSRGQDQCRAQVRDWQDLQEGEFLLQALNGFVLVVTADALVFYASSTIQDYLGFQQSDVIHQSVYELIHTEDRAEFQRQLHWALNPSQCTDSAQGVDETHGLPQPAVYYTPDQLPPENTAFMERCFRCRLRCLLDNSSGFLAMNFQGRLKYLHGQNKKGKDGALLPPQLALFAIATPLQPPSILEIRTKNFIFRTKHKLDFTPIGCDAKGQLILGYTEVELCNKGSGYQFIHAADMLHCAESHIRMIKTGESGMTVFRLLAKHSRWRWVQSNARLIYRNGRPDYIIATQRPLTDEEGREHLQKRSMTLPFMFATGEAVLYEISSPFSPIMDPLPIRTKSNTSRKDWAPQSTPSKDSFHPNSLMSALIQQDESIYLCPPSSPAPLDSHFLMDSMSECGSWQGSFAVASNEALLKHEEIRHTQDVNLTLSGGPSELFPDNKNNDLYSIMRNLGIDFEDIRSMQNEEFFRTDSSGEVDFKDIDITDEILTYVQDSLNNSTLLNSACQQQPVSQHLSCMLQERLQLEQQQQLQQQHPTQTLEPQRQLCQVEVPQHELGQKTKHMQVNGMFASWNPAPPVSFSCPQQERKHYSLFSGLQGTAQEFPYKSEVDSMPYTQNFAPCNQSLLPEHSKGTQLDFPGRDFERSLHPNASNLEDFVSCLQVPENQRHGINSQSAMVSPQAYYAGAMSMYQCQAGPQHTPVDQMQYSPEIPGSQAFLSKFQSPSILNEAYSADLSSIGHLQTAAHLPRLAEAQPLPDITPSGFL
AhR/ARNT heteromer (Hepa 1c1c7) (Mus musculus), one chain, as listed by the source, chain 2 of 2: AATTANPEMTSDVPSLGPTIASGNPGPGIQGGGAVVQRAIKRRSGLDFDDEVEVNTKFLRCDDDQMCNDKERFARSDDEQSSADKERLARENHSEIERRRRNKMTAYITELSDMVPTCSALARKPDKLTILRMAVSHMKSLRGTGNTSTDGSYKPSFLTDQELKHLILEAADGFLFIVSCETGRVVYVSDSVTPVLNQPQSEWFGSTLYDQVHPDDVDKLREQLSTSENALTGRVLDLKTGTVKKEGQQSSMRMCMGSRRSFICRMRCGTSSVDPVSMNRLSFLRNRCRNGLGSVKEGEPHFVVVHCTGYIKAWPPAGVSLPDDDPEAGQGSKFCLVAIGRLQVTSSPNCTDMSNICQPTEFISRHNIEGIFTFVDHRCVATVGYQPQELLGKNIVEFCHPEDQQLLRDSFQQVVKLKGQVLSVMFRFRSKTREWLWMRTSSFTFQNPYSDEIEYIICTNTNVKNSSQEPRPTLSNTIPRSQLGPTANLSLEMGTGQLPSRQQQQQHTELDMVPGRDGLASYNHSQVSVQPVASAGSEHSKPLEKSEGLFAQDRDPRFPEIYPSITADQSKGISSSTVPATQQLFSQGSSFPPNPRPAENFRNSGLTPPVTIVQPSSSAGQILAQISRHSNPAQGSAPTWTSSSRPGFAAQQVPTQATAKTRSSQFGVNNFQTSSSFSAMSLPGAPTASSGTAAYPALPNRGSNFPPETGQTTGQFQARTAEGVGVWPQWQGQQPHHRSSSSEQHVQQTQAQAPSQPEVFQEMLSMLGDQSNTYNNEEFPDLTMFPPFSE
AhR/ARNT heteromer (rat liver) (Rattus norvegicus), one chain, as listed by the source, chain 2 of 2: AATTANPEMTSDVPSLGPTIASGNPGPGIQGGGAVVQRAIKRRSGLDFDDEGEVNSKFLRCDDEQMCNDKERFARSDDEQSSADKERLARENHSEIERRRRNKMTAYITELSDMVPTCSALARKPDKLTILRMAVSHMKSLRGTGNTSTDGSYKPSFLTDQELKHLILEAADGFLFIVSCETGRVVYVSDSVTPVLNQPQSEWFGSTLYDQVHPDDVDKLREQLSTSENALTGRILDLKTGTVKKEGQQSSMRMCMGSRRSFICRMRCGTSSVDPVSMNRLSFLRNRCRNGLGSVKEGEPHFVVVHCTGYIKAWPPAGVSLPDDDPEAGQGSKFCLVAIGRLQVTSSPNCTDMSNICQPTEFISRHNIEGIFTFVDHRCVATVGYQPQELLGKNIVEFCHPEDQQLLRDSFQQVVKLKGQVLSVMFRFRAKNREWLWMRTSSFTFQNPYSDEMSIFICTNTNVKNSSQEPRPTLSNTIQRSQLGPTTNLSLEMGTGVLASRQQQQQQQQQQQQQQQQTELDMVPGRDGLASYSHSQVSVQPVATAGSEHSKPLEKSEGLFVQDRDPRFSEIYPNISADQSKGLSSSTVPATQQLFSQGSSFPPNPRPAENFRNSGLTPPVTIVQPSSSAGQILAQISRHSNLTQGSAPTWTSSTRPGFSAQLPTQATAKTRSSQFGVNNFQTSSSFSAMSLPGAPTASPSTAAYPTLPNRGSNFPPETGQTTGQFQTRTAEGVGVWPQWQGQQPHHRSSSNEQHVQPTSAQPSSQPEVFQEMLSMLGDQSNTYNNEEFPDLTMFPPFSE
AhR/ARNT heteromer (guinea pig liver) (Cavia porcellus), one chain, as listed by the source, chain 2 of 2: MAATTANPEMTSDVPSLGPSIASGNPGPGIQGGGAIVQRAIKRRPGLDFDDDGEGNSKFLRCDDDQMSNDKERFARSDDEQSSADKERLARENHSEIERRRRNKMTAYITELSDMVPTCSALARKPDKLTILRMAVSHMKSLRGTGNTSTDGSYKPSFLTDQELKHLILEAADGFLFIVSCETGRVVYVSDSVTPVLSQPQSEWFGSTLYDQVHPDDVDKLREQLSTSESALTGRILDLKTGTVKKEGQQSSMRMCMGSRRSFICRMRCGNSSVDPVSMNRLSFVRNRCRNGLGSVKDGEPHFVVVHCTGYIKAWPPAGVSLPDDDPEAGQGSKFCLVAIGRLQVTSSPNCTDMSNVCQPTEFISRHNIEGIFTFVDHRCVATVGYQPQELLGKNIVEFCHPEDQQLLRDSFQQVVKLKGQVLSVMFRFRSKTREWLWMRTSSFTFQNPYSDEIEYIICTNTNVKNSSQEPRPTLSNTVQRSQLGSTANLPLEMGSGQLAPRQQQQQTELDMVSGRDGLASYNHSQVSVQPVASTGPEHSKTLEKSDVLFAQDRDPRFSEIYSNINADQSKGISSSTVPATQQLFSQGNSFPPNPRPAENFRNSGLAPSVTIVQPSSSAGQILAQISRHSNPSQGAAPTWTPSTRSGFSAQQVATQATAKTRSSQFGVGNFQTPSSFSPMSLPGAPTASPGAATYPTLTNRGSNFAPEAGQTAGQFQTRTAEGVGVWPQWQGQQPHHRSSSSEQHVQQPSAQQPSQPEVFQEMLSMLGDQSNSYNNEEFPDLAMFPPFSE

Key:
[1] = test system: AhR/GST-ARNT(1-474) heterodimer (Mus musculus); assay: binding assay; conditions: anti-GST capture PCR; signal 3013 with 10 uM BNF vs 363 DMSO; 60 mM NaCl, salmon sperm DNA; protein in an extract
[2] = test system: AhR/ARNT heteromer (rat liver) (Rattus norvegicus); assay: binding assay; conditions: antibody capture then real-time PCR; ligand (TCDD) EC50 2.8 pg in assay; protein in an extract
[3] = test system: AhR/ARNT heteromer (guinea pig liver) (Cavia porcellus); assay: binding assay; conditions: antibody capture then real-time PCR; ligand (TCDD) EC50 2.6 pg in assay; protein in an extract
[4] = test system: AhR/biotinylated GST-ARNT(1-474) heterodimer; assay: binding assay; conditions: neutravidin capture PCR; BNF 392 vs DMSO 122 at 500 fmol tracer; 60 mM NaCl, salmon sperm DNA; protein in an extract; protein details: GST and biotin (Sulfo-NHS-LC-Biotin) on ARNT
[5] = test system: AhR/ARNT heteromer (Hepa 1c1c7) (Mus musculus); assay: binding assay; conditions: anti-ARNT capture then PCR; binding increases with TCDD (5430 counts at 0, 504879 at 1000 fmol) or BNF; protein in an extract
[6] = test system: HIF-1 alpha/ARNT (HIF-1 beta) heterodimer (Homo sapiens); assay: binding assay; conditions: anti-ARNT capture real-time PCR; Ct 20.47 CoCl2-treated vs 23.08 untreated cytosol; nuclear extract Ct 23.5; protein in an extract
[7] = test system: HIF-1 alpha/ARNT (HIF-1 beta) heterodimer (Homo sapiens); assay: competition with a labelled probe; conditions: 100x competitor raises Ct 20.47 to 22.52 (treated cytosol) and 23.5 to 26.51 (nuclear extract); protein in an extract

CAACTTCATCCACGTTCACCTCGAGCTGGGGGCATTGCGTGACAAGCCGTACCTGTCCTTGGCTCTTC (double strand) [DRE tracer (DRE1/DRE2)]
binding result [1]: binds | binding result [2]: binds | binding result [3]: binds | binding result [4]: binds | binding result [5]: binds

CAACTTCATCCAGTCTCACCGATCGCCCTACGTGCTGTCTCGACTCTGTCCTTGGCTCTAC (double strand) [HRE tracer (HRE1/HRE2)]
binding result [6]: binds

GATCGCCCTACGTGCTGTCTC (double strand) [competitor HRE (HRECo1/HRECo2)]
binding result [7]: binds
